This series has as its system α2δ-1-NMDAR interaction. The series is described as follows: Luminescence resonance energy transfer (LRET) in HEK293 cells. In kind it is binding, rat. Conditions: with gabapentin.
Where [1] appears, read: GluN1* + GluN2A + YFP-α2δ-1 mutant.
Where [2] appears, read: GluN1 + GluN2A* + YFP-α2δ-1 mutant.

Marks after values point to notes of the source that are not given here.

Take `NCC1(CC(=O)O)CCCCC1` [gabapentin]: the Distance (GluN1* + GluN2A + YFP-α2δ-1) was >95 ^# Å, the Distance under setting [1] amounted to 57.9 ± 0.9 Å, the Distance (GluN1 + GluN2A* + YFP-α2δ-1) is reported as >95 ^# Å and the Distance under setting [2] stood at 60.4 ± 0.7 Å. Besides, the Donor only lifetime is recorded as 1,779 ± 1 μs (GluN1* + GluN2A + YFP-α2δ-1), 1,779 ± 1 μs under setting [1], 1,770 ± 1 μs (GluN1 + GluN2A* + YFP-α2δ-1) and 1,770 ± 1 μs under setting [2]. The Donor-acceptor lifetime entry reads like this: (GluN1* + GluN2A + YFP-α2δ-1) “no LRET”; under setting [1], 1,344 ± 38 μs; (GluN1 + GluN2A* + YFP-α2δ-1) “no LRET”; under setting [2], 1,409 ± 16 μs.

The values above are taken from US11787839B2, “Targeting α2δ-1-bound glutamate receptors for treating diseases and disorders” (Board of Regents, The University of Texas System, priority 2017, dated 2023).
